The values that follow come from the supplement of paper PMC10849652.

Chains of the proteins cited; added tags and fusions are not shown. Lines headed by an entry give the natural chain unless they say otherwise; changes in a name come on top.
UniProt Q9NX00: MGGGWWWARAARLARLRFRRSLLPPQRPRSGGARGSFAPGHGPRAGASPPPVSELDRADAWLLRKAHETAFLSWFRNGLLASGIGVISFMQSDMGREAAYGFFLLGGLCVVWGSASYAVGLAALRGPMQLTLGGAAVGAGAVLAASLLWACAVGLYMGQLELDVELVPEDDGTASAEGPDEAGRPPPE
UniProt Q8TDI8: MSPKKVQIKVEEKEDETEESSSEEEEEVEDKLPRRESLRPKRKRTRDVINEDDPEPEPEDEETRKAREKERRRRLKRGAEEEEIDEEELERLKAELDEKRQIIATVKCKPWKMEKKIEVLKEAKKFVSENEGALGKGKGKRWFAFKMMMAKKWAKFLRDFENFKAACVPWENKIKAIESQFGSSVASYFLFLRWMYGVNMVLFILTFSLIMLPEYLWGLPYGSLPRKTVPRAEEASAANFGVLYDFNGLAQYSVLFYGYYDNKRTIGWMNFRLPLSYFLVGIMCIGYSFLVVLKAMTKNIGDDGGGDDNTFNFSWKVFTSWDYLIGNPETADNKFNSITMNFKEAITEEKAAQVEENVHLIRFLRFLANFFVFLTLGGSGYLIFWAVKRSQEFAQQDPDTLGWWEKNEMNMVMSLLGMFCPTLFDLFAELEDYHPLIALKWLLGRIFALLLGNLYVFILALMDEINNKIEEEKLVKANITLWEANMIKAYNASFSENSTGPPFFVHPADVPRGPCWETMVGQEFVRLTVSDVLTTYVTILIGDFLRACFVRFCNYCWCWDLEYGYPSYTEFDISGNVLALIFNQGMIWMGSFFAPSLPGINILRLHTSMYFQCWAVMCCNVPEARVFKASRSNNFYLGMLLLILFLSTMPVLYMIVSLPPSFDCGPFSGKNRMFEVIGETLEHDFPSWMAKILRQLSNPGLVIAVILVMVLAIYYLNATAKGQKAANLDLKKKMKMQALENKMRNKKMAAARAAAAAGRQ
UniProt O00142: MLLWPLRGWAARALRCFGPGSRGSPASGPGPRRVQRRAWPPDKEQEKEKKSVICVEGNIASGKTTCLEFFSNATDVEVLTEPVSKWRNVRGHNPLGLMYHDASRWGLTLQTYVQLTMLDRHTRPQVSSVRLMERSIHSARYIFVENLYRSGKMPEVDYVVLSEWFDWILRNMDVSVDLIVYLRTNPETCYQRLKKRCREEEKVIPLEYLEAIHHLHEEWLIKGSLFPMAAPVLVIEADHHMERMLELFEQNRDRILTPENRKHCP
UniProt Q9NS93: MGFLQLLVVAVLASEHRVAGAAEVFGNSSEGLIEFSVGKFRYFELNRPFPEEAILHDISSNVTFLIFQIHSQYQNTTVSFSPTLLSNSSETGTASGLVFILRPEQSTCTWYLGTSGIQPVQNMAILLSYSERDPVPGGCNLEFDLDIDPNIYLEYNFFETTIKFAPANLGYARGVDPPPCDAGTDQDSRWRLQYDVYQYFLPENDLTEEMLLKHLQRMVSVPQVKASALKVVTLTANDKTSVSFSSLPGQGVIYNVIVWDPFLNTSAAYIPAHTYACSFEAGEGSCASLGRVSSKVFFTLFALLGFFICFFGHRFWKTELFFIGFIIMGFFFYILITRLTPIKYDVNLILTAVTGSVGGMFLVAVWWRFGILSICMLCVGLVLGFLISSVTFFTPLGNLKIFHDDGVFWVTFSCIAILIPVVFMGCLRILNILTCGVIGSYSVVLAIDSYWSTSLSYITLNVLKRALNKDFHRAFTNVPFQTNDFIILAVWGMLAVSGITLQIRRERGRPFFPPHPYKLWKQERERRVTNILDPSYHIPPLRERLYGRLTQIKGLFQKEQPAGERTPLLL
UniProt Q8N131: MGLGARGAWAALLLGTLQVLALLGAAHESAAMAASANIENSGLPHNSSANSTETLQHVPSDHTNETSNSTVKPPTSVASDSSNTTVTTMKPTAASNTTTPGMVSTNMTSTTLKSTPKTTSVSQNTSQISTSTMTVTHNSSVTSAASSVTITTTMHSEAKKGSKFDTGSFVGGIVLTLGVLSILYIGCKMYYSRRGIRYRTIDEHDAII
UniProt Q9BVV7: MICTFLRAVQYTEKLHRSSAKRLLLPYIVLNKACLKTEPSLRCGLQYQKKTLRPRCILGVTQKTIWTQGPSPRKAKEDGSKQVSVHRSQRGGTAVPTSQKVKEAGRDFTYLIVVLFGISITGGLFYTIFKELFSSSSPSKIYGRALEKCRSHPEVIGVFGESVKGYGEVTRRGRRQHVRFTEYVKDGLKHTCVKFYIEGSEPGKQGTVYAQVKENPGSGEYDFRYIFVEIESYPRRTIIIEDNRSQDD
UniProt Q96EK4, whole entry, looked up: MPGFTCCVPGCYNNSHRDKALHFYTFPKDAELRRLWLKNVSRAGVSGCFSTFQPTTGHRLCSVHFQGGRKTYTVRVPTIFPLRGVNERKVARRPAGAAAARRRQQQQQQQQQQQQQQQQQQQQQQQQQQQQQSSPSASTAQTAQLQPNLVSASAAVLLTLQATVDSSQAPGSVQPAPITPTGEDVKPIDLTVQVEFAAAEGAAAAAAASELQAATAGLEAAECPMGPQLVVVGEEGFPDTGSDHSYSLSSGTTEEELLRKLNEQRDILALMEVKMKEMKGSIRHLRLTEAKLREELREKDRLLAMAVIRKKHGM
UniProt Q3LXA3: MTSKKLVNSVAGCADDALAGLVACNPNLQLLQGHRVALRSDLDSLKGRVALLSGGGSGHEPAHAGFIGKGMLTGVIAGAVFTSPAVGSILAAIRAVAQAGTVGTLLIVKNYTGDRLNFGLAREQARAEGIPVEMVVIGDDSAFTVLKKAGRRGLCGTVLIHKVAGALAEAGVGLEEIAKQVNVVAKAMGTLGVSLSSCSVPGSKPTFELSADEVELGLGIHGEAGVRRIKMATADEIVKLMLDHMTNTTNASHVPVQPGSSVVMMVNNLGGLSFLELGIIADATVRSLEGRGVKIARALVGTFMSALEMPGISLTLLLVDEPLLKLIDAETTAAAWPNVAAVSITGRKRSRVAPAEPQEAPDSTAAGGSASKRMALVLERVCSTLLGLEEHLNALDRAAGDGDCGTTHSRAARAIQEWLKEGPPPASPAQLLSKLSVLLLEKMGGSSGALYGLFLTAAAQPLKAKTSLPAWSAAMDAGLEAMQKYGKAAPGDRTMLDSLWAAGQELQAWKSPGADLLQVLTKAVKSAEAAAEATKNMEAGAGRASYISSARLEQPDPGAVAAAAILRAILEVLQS
UniProt P04183: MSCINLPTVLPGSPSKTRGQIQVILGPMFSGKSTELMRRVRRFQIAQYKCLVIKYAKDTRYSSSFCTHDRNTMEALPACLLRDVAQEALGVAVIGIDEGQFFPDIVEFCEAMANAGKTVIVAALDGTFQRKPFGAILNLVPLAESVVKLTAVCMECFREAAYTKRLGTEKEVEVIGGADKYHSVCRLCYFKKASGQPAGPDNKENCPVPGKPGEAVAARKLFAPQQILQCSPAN
UniProt Q8TBQ9: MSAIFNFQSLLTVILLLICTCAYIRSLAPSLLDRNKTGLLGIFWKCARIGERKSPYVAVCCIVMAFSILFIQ
UniProt Q9P0S9: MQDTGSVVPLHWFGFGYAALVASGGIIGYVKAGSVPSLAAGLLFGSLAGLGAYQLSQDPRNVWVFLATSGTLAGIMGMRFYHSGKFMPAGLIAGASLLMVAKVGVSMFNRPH
UniProt Q8NDZ6: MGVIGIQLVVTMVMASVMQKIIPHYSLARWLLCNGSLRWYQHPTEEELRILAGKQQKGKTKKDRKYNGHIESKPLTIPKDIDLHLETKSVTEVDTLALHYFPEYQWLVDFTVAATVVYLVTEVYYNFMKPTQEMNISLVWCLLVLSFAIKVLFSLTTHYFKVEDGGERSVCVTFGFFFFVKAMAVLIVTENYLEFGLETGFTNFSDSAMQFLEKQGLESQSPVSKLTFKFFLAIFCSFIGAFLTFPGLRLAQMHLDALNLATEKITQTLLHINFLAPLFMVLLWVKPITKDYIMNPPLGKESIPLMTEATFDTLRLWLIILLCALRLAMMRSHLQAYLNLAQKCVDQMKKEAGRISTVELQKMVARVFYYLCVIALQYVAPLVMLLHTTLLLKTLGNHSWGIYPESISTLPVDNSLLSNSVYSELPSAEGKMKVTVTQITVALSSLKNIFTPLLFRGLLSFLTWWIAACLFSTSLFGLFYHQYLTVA
UniProt Q96AN5: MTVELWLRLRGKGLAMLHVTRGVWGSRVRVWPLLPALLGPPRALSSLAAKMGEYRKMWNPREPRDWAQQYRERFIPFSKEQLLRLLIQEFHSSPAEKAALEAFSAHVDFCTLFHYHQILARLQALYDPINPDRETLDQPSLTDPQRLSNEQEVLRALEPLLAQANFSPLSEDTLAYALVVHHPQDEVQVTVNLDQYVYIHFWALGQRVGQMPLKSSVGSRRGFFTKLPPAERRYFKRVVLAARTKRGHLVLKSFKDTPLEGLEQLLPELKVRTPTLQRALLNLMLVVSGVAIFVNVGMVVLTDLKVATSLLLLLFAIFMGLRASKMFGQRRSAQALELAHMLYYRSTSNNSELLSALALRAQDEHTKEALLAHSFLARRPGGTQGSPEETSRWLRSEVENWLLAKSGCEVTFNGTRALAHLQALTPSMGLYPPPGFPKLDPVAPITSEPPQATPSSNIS
UniProt Q9NR96: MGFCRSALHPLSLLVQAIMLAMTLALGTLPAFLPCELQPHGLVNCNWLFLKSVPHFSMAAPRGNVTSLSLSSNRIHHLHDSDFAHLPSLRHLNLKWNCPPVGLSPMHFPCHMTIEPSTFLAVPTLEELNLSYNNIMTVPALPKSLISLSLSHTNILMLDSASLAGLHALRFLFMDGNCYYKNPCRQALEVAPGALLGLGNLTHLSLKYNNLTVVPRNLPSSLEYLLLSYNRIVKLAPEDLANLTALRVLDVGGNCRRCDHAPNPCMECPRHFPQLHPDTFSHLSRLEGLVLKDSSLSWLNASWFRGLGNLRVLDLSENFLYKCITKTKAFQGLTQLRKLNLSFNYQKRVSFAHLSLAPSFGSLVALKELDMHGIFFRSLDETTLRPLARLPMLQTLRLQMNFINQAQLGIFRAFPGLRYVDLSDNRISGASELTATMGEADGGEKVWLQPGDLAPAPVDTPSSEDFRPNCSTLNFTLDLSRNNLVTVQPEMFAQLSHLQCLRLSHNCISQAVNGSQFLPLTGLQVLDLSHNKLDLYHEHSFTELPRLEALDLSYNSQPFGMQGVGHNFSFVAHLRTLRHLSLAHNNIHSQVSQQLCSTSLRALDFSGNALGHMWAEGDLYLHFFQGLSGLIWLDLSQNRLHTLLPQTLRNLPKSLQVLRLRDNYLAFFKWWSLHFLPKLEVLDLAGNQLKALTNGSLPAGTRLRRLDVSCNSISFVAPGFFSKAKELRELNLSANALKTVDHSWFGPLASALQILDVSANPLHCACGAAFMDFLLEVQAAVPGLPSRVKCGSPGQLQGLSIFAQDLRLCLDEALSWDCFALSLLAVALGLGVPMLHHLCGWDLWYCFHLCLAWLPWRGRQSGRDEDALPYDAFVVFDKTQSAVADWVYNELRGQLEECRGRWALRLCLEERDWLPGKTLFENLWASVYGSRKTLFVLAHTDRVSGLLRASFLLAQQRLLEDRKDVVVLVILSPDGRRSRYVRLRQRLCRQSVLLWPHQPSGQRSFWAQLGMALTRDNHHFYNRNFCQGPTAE
UniProt Q96I45: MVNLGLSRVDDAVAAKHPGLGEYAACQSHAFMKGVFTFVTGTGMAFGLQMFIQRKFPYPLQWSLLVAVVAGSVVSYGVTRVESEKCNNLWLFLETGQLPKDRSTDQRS
UniProt P29401: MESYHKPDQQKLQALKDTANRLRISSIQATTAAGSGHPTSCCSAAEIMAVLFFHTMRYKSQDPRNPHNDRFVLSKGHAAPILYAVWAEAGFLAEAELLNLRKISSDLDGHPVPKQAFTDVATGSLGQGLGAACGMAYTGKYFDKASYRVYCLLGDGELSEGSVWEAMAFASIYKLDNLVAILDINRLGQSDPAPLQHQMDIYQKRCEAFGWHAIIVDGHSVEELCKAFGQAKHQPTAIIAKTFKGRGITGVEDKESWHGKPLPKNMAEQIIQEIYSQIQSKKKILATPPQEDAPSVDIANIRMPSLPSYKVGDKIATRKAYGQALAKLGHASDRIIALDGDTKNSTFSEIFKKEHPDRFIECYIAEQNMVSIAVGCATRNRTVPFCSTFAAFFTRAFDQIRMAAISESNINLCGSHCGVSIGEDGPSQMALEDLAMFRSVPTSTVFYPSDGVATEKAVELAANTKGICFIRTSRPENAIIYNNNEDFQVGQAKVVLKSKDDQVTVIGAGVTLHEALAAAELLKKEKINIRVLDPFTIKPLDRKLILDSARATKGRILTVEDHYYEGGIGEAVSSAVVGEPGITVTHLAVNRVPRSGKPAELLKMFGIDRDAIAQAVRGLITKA
UniProt A0PK00: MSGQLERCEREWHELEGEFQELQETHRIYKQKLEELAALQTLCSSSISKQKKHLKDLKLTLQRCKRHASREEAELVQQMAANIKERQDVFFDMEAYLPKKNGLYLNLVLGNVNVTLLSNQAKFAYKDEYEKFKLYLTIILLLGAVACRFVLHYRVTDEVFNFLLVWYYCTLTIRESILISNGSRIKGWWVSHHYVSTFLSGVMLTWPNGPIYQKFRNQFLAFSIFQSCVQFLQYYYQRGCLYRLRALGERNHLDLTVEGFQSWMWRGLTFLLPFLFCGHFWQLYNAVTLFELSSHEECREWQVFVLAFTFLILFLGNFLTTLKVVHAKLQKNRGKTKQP

This is one part of the list.

Compound in one test: CN1CCc2c(c3ccccc3n2Cc2ccc(C(=O)NO)cc2)C1 [Tubastatin A]
Briefly: log2 fold change, soluble protein after heating vs DMSO (PISA); higher = thermal stabilisation; K562 lysate, 10 uM; active = over 0.2 and 3.5 SD of the protein, either way, in both replicates (recomputed). The gist of the method: (§1)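 K562 pellets were dounce-homogenised in PBS pH 7.4 with 1 mM MgCl2, and the crude extract at 1 mg/mL protein was treated with 10 μM compound for 30 min. Aliquots were heated for 3 min across 48°C-58°C, pooled, and brought to 0.5% NP-40 at 4°C; soluble protein was the supernatant after 21,000xg for 90 min. Soluble protein was quantified by TMTpro 16plex LC-MS/MS with channel sums equalised, and reported as log2 fold change in thermal stability against DMSO controls, with values from duplicates.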
With TMEM160 (UniProt Q9NX00), the log2 fold change was inactive: 0.078.
The same measure, in the same setting: the figure for TIGAR (UniProt Q9NQ88) is inactive: 0.206; for TMC1 (UniProt Q8TDI8) it is inactive: -0.088; for TIMM44 (UniProt O43615) it is inactive: 0.083.
Turning to TK2 isoform 6 (UniProt O00142), the log2 fold change is inactive: 0.064.
With TK1 (UniProt K7ERV3), the log2 fold change was inactive: 0.118.
THAP9 (UniProt Q9H5L6): the log2 fold change is inactive: 0.053.
As for TIMM13 (UniProt Q9Y5L4), the log2 fold change is inactive: -0.022.
On to TIMM10B (UniProt Q9Y5J6), for which the log2 fold change was inactive: 0.125.
For TM7SF3 (UniProt Q9NS93), the log2 fold change is inactive: -0.018.
In the case of TMED1 (UniProt Q13445), the log2 fold change was inactive: 0.035.
TMEM123 (UniProt Q8N131): the log2 fold change is inactive: 0.046.
As for TIMM21 (UniProt Q9BVV7), the log2 fold change is inactive: -0.004.
Consider TMC6 (UniProt Q7Z403), for which the log2 fold change was inactive: -0.085.
Same read-out and setting: the figure for THAP11 (UniProt Q96EK4) is inactive: -0.025; for THOC7 (UniProt Q6I9Y2) it is inactive: -0.008.
Turning to TKFC (UniProt Q3LXA3), the log2 fold change was inactive: 0.027.
For TMEM181 (UniProt Q9P2C4), the log2 fold change is inactive: 0.009.
Take TK1 (UniProt P04183): the log2 fold change was inactive: 0.004.
With TMEM167A (UniProt Q8TBQ9), the log2 fold change is inactive: -0.073.
As for TMEM14C (UniProt Q9P0S9), the log2 fold change is active: -0.463.
On the same count and under the same terms, the value for TJP1 (UniProt G3V1L9) was inactive: -0.042; that for TMEM161B (UniProt Q8NDZ6) was inactive: 0.035.
The same measure, in the same setting: the value for TMEM143 (UniProt Q96AN5) was inactive: 0.181.
Same read-out and setting: the figure for TLR9 isoform 4 (UniProt Q9NR96) is inactive: 0.037; for TMEM177 (UniProt Q53S58) it is inactive: 0.05; for TGM2 (UniProt P21980) it is inactive: -0.032.
For TIMM10 (UniProt P62072), the log2 fold change was inactive: 0.067.
Still for that read-out and setting: the value for TMEM141 (UniProt Q96I45) was inactive: -0.121; that for TMED4 (UniProt Q7Z7H5) was inactive: 0.075; that for TM9SF1 (UniProt O15321) was inactive: 0.084.
For the target TMEM167B (UniProt Q9NRX6), the log2 fold change was inactive: -0.028.
Turning to TKT isoform 2 (UniProt P29401), the log2 fold change is inactive: 0.026.
In the case of TGOLN2 isoform 7 (UniProt O43493), the log2 fold change is inactive: 0.003.
The same measure, in the same setting: the value for TIAL1 isoform 2 (UniProt Q01085) was inactive: 0.05.

Compound in another test: CNC(=O)C1=CC=CC=C1NC2=NC(=NC=C2Cl)NC3=C(C=C(C=C3)N4CCOCC4)OC
The test is described as above. Summed up:
as §1
On to TMEM160 (UniProt Q9NX00), for which the log2 fold change is inactive: -0.065.
For TIGAR (UniProt Q9NQ88), the log2 fold change was inactive: -0.097.
In the case of TMC1 (UniProt Q8TDI8), the log2 fold change is inactive: -0.028.
Take TIMM44 (UniProt O43615): the log2 fold change is inactive: 0.039.
For the target TK2 isoform 6 (UniProt O00142), the log2 fold change was inactive: 0.008.
As to TK1 (UniProt K7ERV3), the log2 fold change is inactive: -0.002.
Turning to TIMM13 (UniProt Q9Y5L4), the log2 fold change was inactive: -0.005.
On the same count and under the same terms, the value for TIMM10B (UniProt Q9Y5J6) was inactive: 0.214; that for TM7SF3 (UniProt Q9NS93) was inactive: -0.108.
As for TMED1 (UniProt Q13445), the log2 fold change is inactive: 0.119.
As for TMEM123 (UniProt Q8N131), the log2 fold change was inactive: -0.04.
TIMM21 (UniProt Q9BVV7): the log2 fold change was inactive: 0.045.
On the same count and under the same terms, the figure for TMEM120B (UniProt A0PK00) is inactive: -0.022; for TMC6 (UniProt Q7Z403) it is inactive: 0.109; for TM6SF1 (UniProt Q9BZW5) it is inactive: -0.014.
THAP11 (UniProt Q96EK4): the log2 fold change was inactive: 0.139.
For the target THOC7 (UniProt Q6I9Y2), the log2 fold change was inactive: 0.047.
With TKFC (UniProt Q3LXA3), the log2 fold change is inactive: 0.02.
Still for that read-out and setting: the value for TMEM181 (UniProt Q9P2C4) was inactive: -0.028.
Regarding TK1 (UniProt P04183), the log2 fold change is inactive: 0.006.
Regarding TMEM167A (UniProt Q8TBQ9), the log2 fold change was inactive: 0.023.
Same read-out and setting: the value for TMEM14C (UniProt Q9P0S9) was inactive: 0.033; that for TJP1 (UniProt G3V1L9) was inactive: 0.124.
TMEM161B (UniProt Q8NDZ6): the log2 fold change was inactive: -0.022.
In the case of TLR9 isoform 4 (UniProt Q9NR96), the log2 fold change is inactive: 0.012.
Regarding TMEM177 (UniProt Q53S58), the log2 fold change is inactive: 0.075.
Turning to TGM2 (UniProt P21980), the log2 fold change was inactive: -0.007.
On to TIMM10 (UniProt P62072), for which the log2 fold change is inactive: 0.05.
On to TMEM141 (UniProt Q96I45), for which the log2 fold change is inactive: -0.073.
TMED4 (UniProt Q7Z7H5): the log2 fold change is inactive: 0.028.
For TM9SF1 (UniProt O15321), the log2 fold change was inactive: 0.023.
Still for that read-out and setting: the figure for TMEM167B (UniProt Q9NRX6) is inactive: 0.06.
With TMEM127 (UniProt O75204), the log2 fold change is inactive: -0.04.
In the case of TKT isoform 2 (UniProt P29401), the log2 fold change was inactive: -0.026.
For TGOLN2 isoform 7 (UniProt O43493), the log2 fold change was inactive: -0.052.
Regarding TIAL1 isoform 2 (UniProt Q01085), the log2 fold change was inactive: -0.015.
